The other results are listed elsewhere or left out. Shown are side measurements of this screen, not its main read-out; they come without a call. Most of these compounds were active or inconclusive in the main read-out, so they are no random draw. Potencies come from curve fits of mixed quality, noted in brackets.
Test: qHTS Assay for Lipid Storage Modulators in Drosophila S3 Cells;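 for cell number change: cells counted by Cell Tracker Red CMTPX staining in the red channel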
Settings: BODIPY lipid droplet fluorescence, 18-24 h; for cell number change: measured here: cell count max response, cells fed with added oleic acid
How it was run: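 Drosophila S3 cells loaded with oleic acid (400 uM, as added) and compounds at several concentrations; lipid droplets imaged by 488-nm laser-scanning cytometry, 500–530 nm intensity and object ratio to cell channel. Percent activity normalized to 20 uM Triacsin C.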

[1] = measured here: lipid fluorescence (Fed channel) AC50, cells fed with added oleic acid
[2] = measured here: cell number channel AC50, cells fed with added oleic acid

Row | Structure (SMILES) | AC50 [1] | cell number change [%] | AC50 [2]
1 | O=C1C(Cl)=C(Nc2ccc3cn[nH]c3c2)C(=O)c2ccccc21 | 25.9 µM [falling, partial curve, poor fit] |  | 
2 | COc1ccc(C(=O)OCn2nnc3ccccc3c2=O)cc1[N+](=O)[O-] |  | 50.9 | 29.1 µM [rising, single point]
3 | O=C(/C=C\Nc1ccc2c(c1)OCO2)c1cccs1 | 0.461 µM [rising, full curve, poor fit] | 2.03 | 
4 | Nc1ccc(Oc2ccc(Cl)cc2)cc1 | 3.26 µM [rising, partial curve] | 13.3 | 1.84 µM [rising, partial curve]
5 | O=C(O)/C(=C\c1cccs1)c1ccc(F)cc1 |  | -20.8 | 0.461 µM [falling, single point]
6 | COC(=O)c1ccccc1NC(=O)c1sc(N)nc1C |  | -15.7 | 
7 | CC(C)c1ccc(NC2CCCN(C(=O)CCCn3cncn3)C2)cc1 (stereo not given) | 29.1 µM [rising, single point] | -0.99 | 
8 | CCOC(=O)C(NC(=O)c1ccccc1)(OCc1ccc(F)cc1)C(F)(F)F (stereo not given) | 0.731 µM [falling, full curve] | -50.9 | 8.2 µM [falling, partial curve]
9 | O=C(Cc1ccccc1)Nc1cc(C(=O)c2ccccc2)ccc1N1CCOCC1 | 2.06 µM [rising, partial curve] |  | 0.411 µM [rising, partial curve, poor fit]
10 | CS(=O)(=O)N(CC(=O)NCCSCc1ccccc1)c1ccccc1Br |  | -14.8 | 
11 | O=S(=O)(c1ccc(Cl)cc1)c1snnc1-c1ccccc1 |  | 21.7 | 
12 | CCCS(=O)(=O)N1CCC(C(=O)NCCN(CC)c2ccccc2)CC1 | 0.58 µM [rising, single point] |  | 
13 | CCCC(=O)C1=C(SCC)CC(C)(C)C(C(=O)OC)C1=O (stereo not given) | 14.6 µM [falling, single point] | -21.8 | 0.651 µM [falling, full curve, poor fit]
14 | CNS(=O)(=O)c1cc(NC(=O)c2cncn2-c2ccccc2)ccc1C |  | -11.8 | 
15 | CCOc1ccc(CCNC(=O)COC(=O)c2cc(OC)c(OC)cc2[N+](=O)[O-])cc1OCC |  | 66.7 | 9.2 µM [rising, partial curve]
16 | COc1ccc(-n2nc(C(=O)NCC(=O)NCc3cccc(F)c3)c3ccccc3c2=O)cc1Cl | 9.2 µM [falling, single point] | -45.2 | 
17 | O=C(CSc1nnc(CCCOc2ccc(Cl)cc2Cl)o1)Nc1ccc(C(=O)O)cc1 | 29.1 µM [rising, partial curve] | 45 | 16.4 µM [rising, single point]
18 | N#CC1=C(c2ccccc2)/C(=C/c2ccccc2)OC1=O |  | -18.7 | 

Entries 3 to 9 of the list above:
Row | Structure (SMILES) | AC50 [1] | cell number change [%] | AC50 [2]
3 | O=C(/C=C\Nc1ccc2c(c1)OCO2)c1cccs1 | 0.461 µM [rising, full curve, poor fit] | 2.03 | 
4 | Nc1ccc(Oc2ccc(Cl)cc2)cc1 | 3.26 µM [rising, partial curve] | 13.3 | 1.84 µM [rising, partial curve]
5 | O=C(O)/C(=C\c1cccs1)c1ccc(F)cc1 |  | -20.8 | 0.461 µM [falling, single point]
6 | COC(=O)c1ccccc1NC(=O)c1sc(N)nc1C |  | -15.7 | 
7 | CC(C)c1ccc(NC2CCCN(C(=O)CCCn3cncn3)C2)cc1 (stereo not given) | 29.1 µM [rising, single point] | -0.99 | 
8 | CCOC(=O)C(NC(=O)c1ccccc1)(OCc1ccc(F)cc1)C(F)(F)F (stereo not given) | 0.731 µM [falling, full curve] | -50.9 | 8.2 µM [falling, partial curve]
9 | O=C(Cc1ccccc1)Nc1cc(C(=O)c2ccccc2)ccc1N1CCOCC1 | 2.06 µM [rising, partial curve] |  | 0.411 µM [rising, partial curve, poor fit]

Remaining list, next part:

Row | Structure (SMILES) | AC50 [1] | cell number change [%] | AC50 [2]
19 | CCC(=O)N1c2ccccc2-c2nnc(SC)nc2OC1c1ccc(OC)c(OC)c1 (stereo not given) | 0.0517 µM [rising, full curve, poor fit] | 17.7 | 
20 | Fc1cccc(NC(=S)Nc2ccc(Br)cc2)c1 | 20.6 µM [falling, partial curve, poor fit] | -18.6 | 
21 | COc1ccc(C(=O)NNC(=O)CSc2nnc(-c3ccc(O)cc3)n2C)cc1 |  | -32.9 | 
22 | Cc1cc(NC(=O)CSc2nc(N)c(NC(=O)c3ccc(F)c(F)c3)c(=O)[nH]2)no1 | 0.58 µM [falling, single point] | 141 | 29.1 µM [rising, single point]
23 | Fc1ccc(NC(=S)Nc2cccc3ccccc23)cc1F | 35.5 µM [falling, single point] | -13.3 | 
24 | CCNc1ccc(P(=O)(c2ccccc2)c2ccccc2)cc1 | 1.46 µM [rising, full curve] | 67.9 | 0.82 µM [rising, partial curve, poor fit]
25 | COc1cccc(-c2nnn(CC(=O)Nc3cc(OC)c(NC(=O)c4ccco4)cc3OC)n2)c1 |  | -75.1 | 29.1 µM [falling, single point]
26 | O=c1nc(-c2ccccc2)c2ccccc2[nH]1 | 6.51 µM [falling, single point] | -1.31 | 
27 | CN(C)S(=O)(=O)c1cc(NC(=O)CN2CCN(c3ccc(O)cc3)CC2)ccc1Cl |  | 46.8 | 0.00461 µM [rising, full curve, poor fit]
28 | O=c1[nH]c(CSc2nnc(-c3ccccc3)n2C2CCCCC2)nc2ccccc12 | 3.26 µM [rising, full curve] | 25.8 | 2.31 µM [rising, full curve, poor fit]
29 | CCC1(CC)NC(=S)N(Nc2ccccc2)C1=O | 9.2 µM [falling, partial curve] | 7.49 | 
30 | O=C(CNc1cc(S(=O)(=O)N2CCCC2)ccc1OCC(F)(F)F)Nc1ccc(SC(F)F)cc1 | 29.1 µM [falling, single point] | 31.8 | 0.00517 µM [rising, full curve, poor fit]
31 | O=C(Cc1ccccc1)Nc1c(Cl)ccc2nsnc12 | 8.2 µM [rising, partial curve] | 25.2 | 
32 | Cc1ccnc(NC(=O)CCN2C(=O)c3ccccc3S2(=O)=O)n1 | 23.1 µM [rising, partial curve, poor fit] |  | 0.0731 µM [rising, full curve, poor fit]
33 | COc1ccc(CCNC(=O)CNS(=O)(=O)c2ccc(N(C)C)c([N+](=O)[O-])c2)cc1OC | 0.164 µM [falling, single point] | -30.6 | 0.231 µM [falling, full curve, poor fit]
34 | COc1ccc(CCN(C)C(=O)c2ccc(COc3ccccc3)o2)cc1OC |  | -33.4 | 23.1 µM [falling, single point]
35 | CNC(=O)c1c(NC(=O)c2nc3ccccc3s2)sc2c1CCC2 | 0.291 µM [rising, full curve] | -2.24 | 0.651 µM [rising, full curve]
36 | Cc1ccc(C)n1NC(=O)c1ccccc1[N+](=O)[O-] | 25.9 µM [rising, single point] | 30.9 | 1.3 µM [rising, partial curve, poor fit]

Source: PubChem BioAssay AID2685 (National Center for Advancing Translational Sciences (NCATS), 2010)
